Laboratory results: PubChem BioAssay AID1259254 (NCATS, 2017)
Test: 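Genome-wide screen for genes that prevent DNA re-replication in cancer cells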 (primary screen). Cells: human HCT116 colorectal cancer cells. Reagent: single siRNA against human genes. Duration: 3 days. Read-out: 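Nuclei stained with Hoechst and imaged; cell-cycle phase assigned by DNA content; G2 share scaled per plate, non-targeting siRNA 0%, GMNN siRNA 100%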. Direction: G2 robust z-score and G2 cells, % of GMNN control: higher = more G2 cells, more excess DNA replication. Call rule: 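An siRNA counts as active if its G2 robust z-score lies at least 5 MADs above the screen median; here such calls match roughly 38% of GMNN control or more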.
The whole screen tested about 59,000 reagents; this is a part drawn at random. About 1,550 of them (2.6%) count as active. 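G2 share is only a proxy for re-replication; each gene was hit by three separate siRNAs, and active genes were retested.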 The numbers tell different reagents against one gene apart. Not all columns of the deposit are shown. Not given: the amount of reagent.

| target | reagent no. | G2 robust z-score | G2 cells, % of GMNN control | call |
| --- | --- | --- | --- | --- |
| CRYGN (GeneID 155051) | 1 | -0.239 | 1.28 | inactive |
| CRYGN (GeneID 155051) | 2 | 0.587 | 7.1 | inactive |
| CRYGN (GeneID 155051) | 3 | -0.853 | -3.03 | inactive |
| MTDH (GeneID 92140) | 1 | -0.401 | 0.147 | inactive |
| MTDH (GeneID 92140) | 2 | -0.095 | 2.3 | inactive |
| MTDH (GeneID 92140) | 3 | 2.78 | 22.6 | inactive |
| RAP1A (GeneID 5906) | 1 | 1.48 | 13.4 | inactive |
| RAP1A (GeneID 5906) | 2 | 0.59 | 7.12 | inactive |
| RAP1A (GeneID 5906) | 3 | 1.18 | 11.3 | inactive |
| MSC (GeneID 9242) | 1 | -1.54 | -7.85 | inactive |
| MSC (GeneID 9242) | 2 | -1.17 | -5.26 | inactive |
| MSC (GeneID 9242) | 3 | 1.13 | 10.9 | inactive |
| TNFRSF13C (GeneID 115650) | 1 | 0.055 | 3.35 | inactive |
| TNFRSF13C (GeneID 115650) | 2 | 1.48 | 13.4 | inactive |
| TNFRSF13C (GeneID 115650) | 3 | 1.38 | 12.7 | inactive |
| ADCK1 (GeneID 57143) | 1 | 0.343 | 5.38 | inactive |
| ADCK1 (GeneID 57143) | 2 | -0.675 | -1.78 | inactive |
| ADCK1 (GeneID 57143) | 3 | 2.2 | 18.4 | inactive |
| LMBRD2 (GeneID 92255) | 1 | -0.368 | 0.378 | inactive |
| LMBRD2 (GeneID 92255) | 2 | -0.167 | 1.79 | inactive |
| LMBRD2 (GeneID 92255) | 3 | 2.55 | 20.9 | inactive |
| N4BP2L2 (GeneID 10443) | 1 | 0.381 | 5.65 | inactive |
| N4BP2L2 (GeneID 10443) | 2 | 2.68 | 21.8 | inactive |
| N4BP2L2 (GeneID 10443) | 3 | -0.607 | -1.3 | inactive |
| NCOA4 (GeneID 8031) | 1 | -0.897 | -3.34 | inactive |
| NCOA4 (GeneID 8031) | 2 | -1.22 | -5.6 | inactive |
| NCOA4 (GeneID 8031) | 3 | -0.545 | -0.864 | inactive |
| LRPPRC (GeneID 10128) | 1 | -1.1 | -4.76 | inactive |
| LRPPRC (GeneID 10128) | 2 | -1.28 | -6.07 | inactive |
| LRPPRC (GeneID 10128) | 3 | 1.23 | 11.6 | inactive |
| PCSK9 (GeneID 255738) | 1 | -0.446 | -0.169 | inactive |
| PCSK9 (GeneID 255738) | 2 | -0.626 | -1.43 | inactive |
| PCSK9 (GeneID 255738) | 3 | 0.462 | 6.22 | inactive |
| PCLAF (GeneID 9768) | 1 | -1.31 | -6.28 | inactive |
| PCLAF (GeneID 9768) | 2 | -0.5 | -0.549 | inactive |
| PCLAF (GeneID 9768) | 3 | 7.18 | 53.5 | active |
| OR4X2 (GeneID 119764) | 1 | 0.735 | 8.14 | inactive |
| OR4X2 (GeneID 119764) | 2 | -0.428 | -0.0473 | inactive |
| OR4X2 (GeneID 119764) | 3 | -0.0435 | 2.66 | inactive |
| C2orf78 (GeneID 388960) | 1 | 0.233 | 4.61 | inactive |
| C2orf78 (GeneID 388960) | 2 | 0.804 | 8.63 | inactive |
| C2orf78 (GeneID 388960) | 3 | 1.35 | 12.5 | inactive |
| SEC31B (GeneID 25956) | 1 | 0.884 | 9.19 | inactive |
| SEC31B (GeneID 25956) | 2 | 0.722 | 8.05 | inactive |
| SEC31B (GeneID 25956) | 3 | -0.872 | -3.17 | inactive |
| CRHBP (GeneID 1393) | 1 | -0.87 | -3.16 | inactive |
| CRHBP (GeneID 1393) | 2 | -0.354 | 0.474 | inactive |
| CRHBP (GeneID 1393) | 3 | -1.38 | -6.74 | inactive |
| SYT14 (GeneID 255928) | 1 | 6.54 | 49 | active |
| SYT14 (GeneID 255928) | 2 | 1.03 | 10.2 | inactive |
| SYT14 (GeneID 255928) | 3 | 2.63 | 21.5 | inactive |
| MATN1 (GeneID 4146) | 1 | -0.0306 | 2.75 | inactive |
| MATN1 (GeneID 4146) | 2 | -0.107 | 2.21 | inactive |
| MATN1 (GeneID 4146) | 3 | 0.742 | 8.19 | inactive |
| FETUB (GeneID 26998) | 1 | -0.749 | -2.3 | inactive |
| FETUB (GeneID 26998) | 2 | -1.41 | -6.97 | inactive |
| FETUB (GeneID 26998) | 3 | 0.253 | 4.75 | inactive |
| EIF2S1 (GeneID 1965) | 1 | 3.47 | 27.4 | inactive |
| EIF2S1 (GeneID 1965) | 2 | 5.45 | 41.3 | active |
| EIF2S1 (GeneID 1965) | 3 | 4.25 | 32.9 | inactive |
| GCG (GeneID 2641) | 1 | 2.72 | 22.1 | inactive |
| GCG (GeneID 2641) | 2 | -0.55 | -0.905 | inactive |
| GCG (GeneID 2641) | 3 | 6.87 | 51.3 | active |
| FASTKD1 (GeneID 79675) | 1 | 1.39 | 12.8 | inactive |
| FASTKD1 (GeneID 79675) | 2 | -0.779 | -2.51 | inactive |
| FASTKD1 (GeneID 79675) | 3 | 0.899 | 9.29 | inactive |
| RIT2 (GeneID 6014) | 1 | -0.243 | 1.26 | inactive |
| RIT2 (GeneID 6014) | 2 | -0.189 | 1.64 | inactive |
| RIT2 (GeneID 6014) | 3 | 0.75 | 8.24 | inactive |
